In PubChem BioAssay AID1487 (National Center for Advancing Translational Sciences (NCATS), 2009) one finds AC50 data, which are given here for 54 compounds.

“And” between values parts separate entries of the source, which are not always exact repeats. Identical values can stand only once. The list shows a part of the results. These are further read-outs of the screen, such as a control signal, another cell line or another target. No call is given for them. Compounds called inactive in the main read-out are mostly missing here. The note in brackets gives the kind of curve behind each potency; many fits are weak.

The experiment can be described thus: qHTS Assay for Modulators of Lamin A Splicing. The settings on record: HeLa LMNA splicing GFP/RFP minigene ratio, 48 h. The method in brief: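 S3 HeLa cells stably expressing lamin A-EGFP splicing minigene plus DsRed2, 600 cells/well, 48 h compound exposure at 37C. Laser-scanning cytometry; analysed as GFP (500-530 nm)/RFP (575-640 nm) total intensity ratio; 0.5% DMSO vehicle.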

Setting [1] is: measured here: GFP splicing reporter channel.
[2] abbreviates: measured here: RFP viability control channel.

For orientation: AC50 means the midpoint of the concentration-response curve, whichever way the signal moves. `Cc1ccc(OCC(=O)Nc2cccc(C(=O)OCc3cc(=O)n4c(C)csc4n3)c2)cc1`: the AC50 is, setting by setting: under setting [1], 12.6 µM [falling, single point]; under setting [2], 12.6 µM [falling, single point].

With `COCCn1c(=O)cnc2cnc(Nc3ccccc3)nc21`, the concentration at half-maximal activity (AC50) reads like this: under setting [1], 12.6 µM [falling, partial curve]; under setting [2], 17.8 µM [falling, partial curve]. On to `O=C(CNC(=O)OCc1ccccc1)NC1CCCCCCC1`, for which the concentration at half-maximal activity (AC50) under setting [1] is 0.02 µM [falling, full curve, poor fit]. Turning to `CCOC(=O)N1CCN(S(=O)(=O)c2ccc(OCC)c(C)c2)CC1`, under setting [2], the half-maximal activity concentration (AC50) was 22.4 µM [rising, single point]. Same read-out and setting: then `COc1ccc(N2C(=O)C3C(C2=O)C(C(=O)c2ccccc2)N2CCCC32)cc1` (stereo not drawn), with 35.5 µM [falling, single point]; and `COc1cccc(Nc2nc(-c3sc(NC(=O)CC(C)C)nc3C)cs2)c1`, with 15.8 µM [rising, single point].

With `Cc1nc2c(ccc3nc(NC(=O)C(c4ccccc4)c4ccccc4)sc32)s1`, the half-maximal activity concentration (AC50) under setting [2] is 22.4 µM [rising, partial curve]. Consider `Cn1cccc1C(=O)Nc1nc(-c2ccccn2)cs1`, for which the AC50 was 5.62 µM [falling, partial curve] under setting [1] and 7.94 µM [falling, partial curve] under setting [2]. Regarding `Cc1ccc(NC(=O)C2CCCN(S(=O)(=O)c3c(C)noc3/C=C/N(C)C)C2)cc1F` (stereo not drawn), the concentration at half-maximal activity (AC50) reads like this: under setting [1], 11.2 µM [rising, partial curve]; under setting [2], 12.6 µM [rising, single point]. For `COc1cccc(C(=O)N/N=C(/c2ccccc2)c2ccccn2)c1`, under setting [2], the AC50 was 3.98 µM [rising, full curve]. As to `CCCCCCCCSc1n[nH]c(N)n1`, the AC50 runs as follows: under setting [1], 5.62 µM [rising, partial curve, poor fit]; under setting [2], 15.8 µM [rising, partial curve]. Consider `COc1ccc(S(=O)(=O)N(CC(=O)Nc2ccc3c(c2)OCO3)c2ccccc2OC)cc1`, for which the AC50 under setting [2] was 15.8 µM [rising, single point]. With `O=C(NCCN1CCOCC1)c1cc2cc([N+](=O)[O-])ccc2s1`, the half-maximal activity concentration (AC50) under setting [2] was 2.51 µM [rising, partial curve].

For the compound `CC1=NN(c2ccc(Cl)cc2)C(=O)C1`, the AC50 under setting [1] was 5.01 µM [falling, partial curve, poor fit]. For `CCCCOc1ccc(NC(=O)C(=O)NCCCn2ccnc2)cc1`, the half-maximal activity concentration (AC50) under setting [2] is 22.4 µM [rising, single point]. Take `COc1cccc(C2CCCN2Cc2nc(CCC(C)C)no2)c1` (stereo not drawn): the AC50 under setting [1] was 7.94 µM [falling, partial curve, poor fit] and the AC50 under setting [2] is 1.41 µM [falling, partial curve, poor fit]. With `CCOC(=O)C1=C(CC)Nc2ccccc2N=C1NC(=O)c1ccc(S(=O)(=O)N2CCCC2)cc1`, the AC50 under setting [2] is 35.5 µM [rising, single point]. For the compound `Cc1sc(NC(=O)CSc2nnc(C(C)C)n2C)c(C#N)c1C`, the concentration at half-maximal activity (AC50) under setting [1] is 1.26 µM [falling, single point].

On to `O=C(Cn1c(-c2cccs2)cc2ccccc21)NCCCN1CCN(c2ccccc2F)CC1`, for which the half-maximal activity concentration (AC50) by setting is: under setting [1], 0.708 µM [rising, full curve, poor fit]; under setting [2], 12.6 µM [rising, partial curve]. Turning to `O=C(CSc1nccn1Cc1ccccc1)Nc1ccc2c(c1)OCCO2`, the AC50 under setting [1] is 22.4 µM [falling, partial curve] and the AC50 under setting [2] was 50.1 µM [falling, partial curve, poor fit]. Consider `COc1ccc(/C=N/NC(=O)c2nc(-c3ccccc3)n(-c3ccccc3)n2)c(O)c1`, for which, under setting [2], the AC50 is 22.4 µM [rising, single point]. Consider `CCN(CC)CCNC(C(=O)OCCC(C)C)c1ccccc1` (stereo not drawn), for which the AC50 under setting [1] was 0.0355 µM [falling, full curve]. In the case of `Cc1cc(N/C(=N/S(=O)(=O)c2cc(F)ccc2F)c2ccccc2)n(-c2ccccc2)n1`, under setting [2], the AC50 was 0.0355 µM [rising, full curve, poor fit]. Regarding `Cc1ccc(C(=O)NCCSCc2ccccc2)cc1[N+](=O)[O-]`, the AC50 is 15.8 µM [rising, single point] under setting [1] and 15.8 µM [rising, single point] under setting [2]. As to `O=C(NC1CCCC1)C(c1ccncc1)N(Cc1ccccc1)C(=O)c1ccc(-c2ccccc2)[nH]1` (stereo not drawn), under setting [1], the AC50 was 22.4 µM [falling, single point]. For the compound `CN(C)C(=O)NC1C=CS(=O)(=O)C1` (stereo not drawn), the AC50 is 35.5 µM [falling, partial curve, poor fit] under setting [1] and 35.5 µM [falling, partial curve, poor fit] under setting [2]. On to `O=C(Nc1ccc(Cc2ccncc2)cc1)c1ccc(S(=O)(=O)N2CCCC2)cc1`, for which the AC50 under setting [2] was 5.62 µM [rising, single point]. For `CCOc1ccccc1N1CCN(C(=O)CCCN2C(=O)c3cccc4cccc(c34)C2=O)CC1`, the AC50 under setting [2] was 35.5 µM [rising, single point]. The same measure, in the same setting: in the case of `COc1ccc(OC)c(C(=O)c2ccc(C(=O)Nc3cccc4ccccc34)cc2)c1` it was 2.51 µM [rising, full curve, poor fit]; in that of `O=C(Nc1cccc(F)c1)c1cc(S(=O)(=O)N2CCOCC2)cs1`, 35.5 µM [falling, single point].

For `COc1ccccc1-c1nnc2sc(-c3cc4ccccc4o3)nn12`, the AC50 was 0.631 µM [falling, full curve] under setting [1] and 0.708 µM [falling, full curve] under setting [2]. For `N#CCc1ccc(NS(=O)(=O)c2ccc(C3CCCCC3)cc2)cc1`, the AC50 runs as follows: under setting [1], 10 µM [rising, partial curve]; under setting [2], 5.62 µM [rising, full curve]. Turning to `OCCNc1c2ccccc2nc2c(F)c(F)c(F)c(F)c12`, under setting [2], the half-maximal activity concentration (AC50) is 3.55 µM [rising, full curve, poor fit]. As to `O=C(/C=C/c1ccc([N+](=O)[O-])cc1)NCCN1C(=O)S/C(=C\c2ccc(F)cc2)C1=O`, the half-maximal activity concentration (AC50) under setting [1] was 0.00447 µM [falling, full curve, poor fit] and the AC50 under setting [2] is 0.00355 µM [falling, full curve, poor fit].

Take `Cc1ccc(-c2csc(NC(=O)Cn3[nH]c(=O)c4ccccc4c3=O)n2)cc1`: the AC50 under setting [2] is 7.08 µM [rising, partial curve, poor fit].

With `O=C(O)c1cc(-c2ccc(Cl)s2)nc2ccccc12`, the AC50 under setting [2] was 35.5 µM [rising, single point]. Take `O=C(NCc1ccco1)C1CCN(C(=O)c2cc3sccc3n2Cc2ccc(F)cc2)CC1`: the AC50 under setting [2] was 25.1 µM [rising, single point].

Regarding `COc1cccc(Cn2c(=O)c(C)nc3cnc(Nc4ccccc4)nc32)c1`, the half-maximal activity concentration (AC50) under setting [2] was 10 µM [falling, partial curve]. For `CCN(C(=O)C1CCCN(c2ncnc3c2nc2n3CCCCC2)C1)c1cccc(Cl)c1` (stereo not drawn), the AC50 under setting [1] is 0.1 µM [falling, full curve, poor fit]. Consider `Cc1nn(-c2ccccc2)c(C)c1/C=N/NC(=O)c1cccs1`, for which the AC50 under setting [2] is 12.6 µM [rising, partial curve, poor fit]. For the compound `COc1c2ccoc2nc2c(OC)c(OC[C@H](O)C(C)(C)O)ccc12`, under setting [1], the half-maximal activity concentration (AC50) is 12.6 µM [falling, single point]. For `FC(F)(F)c1ccccc1-c1ccc2ncnc(N3CCOCC3)c2c1`, the AC50 reads like this: under setting [1], 11.2 µM [falling, partial curve]; under setting [2], 20 µM [falling, partial curve, poor fit]. For `CN(Cc1ccccc1)c1ncnc2c1cnn2-c1ccccc1`, the concentration at half-maximal activity (AC50) under setting [2] is 22.4 µM [rising, single point]. Regarding `COc1ccc(-c2cc(=O)n3[nH]cnc3n2)cc1`, the AC50 under setting [1] is 0.562 µM [rising, full curve, poor fit].

In the case of `COc1ccc(C(=O)Nc2ccccc2C(=O)OCc2cc(=O)n3c4c(sc3n2)CCCC4)cc1`, the AC50 under setting [2] was 0.891 µM [falling, partial curve, poor fit]. In the case of `CC(=O)Nc1ccc(S(=O)(=O)N2CCCN(S(=O)(=O)c3ccc(C)cc3)CC2)cc1`, the concentration at half-maximal activity (AC50) is 35.5 µM [rising, single point] under setting [1] and 15.8 µM [rising, single point] under setting [2]. Turning to `CC(=O)N(Cc1ccc(F)cc1)C1=C(NCc2ccccc2)C(=O)c2ccccc2C1=O`, the half-maximal activity concentration (AC50) runs as follows: under setting [1], 7.08 µM [falling, full curve]; under setting [2], 5.62 µM [falling, full curve]. Regarding `CCOC(=O)C1(CC2CCCCO2)CCN(Cc2ccccc2-c2ccco2)CC1` (stereo not drawn), the concentration at half-maximal activity (AC50) under setting [1] was 35.5 µM [falling, single point].

For the compound `Cc1ccc(-c2nnc(N3CCCCC3)c3ccccc23)cc1S(=O)(=O)NCC1CCCO1` (stereo not drawn), the concentration at half-maximal activity (AC50) under setting [2] is 35.5 µM [rising, single point]. As to `C[C@]12CC[C@@H]3c4ccc(OC(=O)c5ccccc5)cc4CC[C@H]3[C@@H]1CC[C@@H]2O`, the AC50 reads like this: under setting [1], 2.51 µM [rising, full curve, poor fit] and 3.98 µM [falling, partial curve]; under setting [2], 3.16 µM [rising, full curve] and 3.98 µM [falling, full curve, poor fit].

Take `COc1ccc(CCNC(=O)CSc2nc3cc(Cl)ccc3o2)cc1OC`: the half-maximal activity concentration (AC50) under setting [2] is 15.8 µM [rising, single point]. For the compound `CN(CCO)c1cc(Sc2nc3ccccc3s2)c2nonc2c1[N+](=O)[O-]`, the concentration at half-maximal activity (AC50) was 25.1 µM [falling, partial curve] under setting [1] and 25.1 µM [falling, single point] under setting [2]. Take `c1ccc(Cc2nnc(Sc3ccccc3)c3ccccc23)cc1`: the AC50 was 25.1 µM [falling, single point] under setting [1] and 35.5 µM [falling, single point] under setting [2]. Take `COc1cc(-c2nc(-c3ccc(NC(=O)c4ccc(Br)o4)cc3)no2)cc(OC)c1OC`: the AC50 under setting [2] is 5.01 µM [rising, partial curve].
